Laboratory results: PubChem BioAssay AID504467 (National Center for Advancing Translational Sciences (NCATS), 2011)
Hit rate of the full screen: of about 330,000 compounds, about 7,700 (2.3%) were called active. The inconclusive results got no clear call from the source; some entries with a clear call stand among them for comparison. Calls come from the whole dose curve; as a rule, active = well fitted inhibition curve with a large enough effect; inconclusive = small, poorly fitted or top-dose-only effect, or effect the other way; inactive = flat fitted curve, though single readings scatter. Potencies beside an inconclusive call are fits to weak or partial responses and may not hold up.

Test: qHTS screen for small molecules that inhibit ELG1-dependent DNA repair in human embryonic kidney (HEK293T) cells expressing luciferase-tagged ELG1; note: nearly all actives have a fitted effect of over 55% in size
Settings: HEK293T ELG1-luciferase reporter, luminescence, 16 h, DNA damage induced by 5-fluorouridine; series mostly up to 46.1 µM
How it was run: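 Step one: seed 2,000 cells per well. Step two: pin-transfer compound or DMSO alongside 5-fluorouridine. Step three: incubate 16 hr, 37 °C, 5% CO2. Step four: add ONE-Glo, wait 30 min, read luminescence.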
Potency is the fitted concentration of half-maximal effect.

SMILES	Potency
COc1ccc(N(C)C(=O)c2ccc3c(Cl)c4c(nc3c2)CCCC4)c(OC)c1	inactive
Cn1cccc1-c1nc2ccc(NC(=O)c3ccc([N+](=O)[O-])cc3)cc2[nH]1	inconclusive: 5.17 µM [inhibitor, single point]
Cc1ccccc1NC(=O)c1cc2ccccc2o1	inconclusive: 8.91 µM [activator, partial curve, poor fit]
NC(=NC(=O)c1ccccc1)N1CCN(C(c2ccccc2)c2ccccc2)CC1	inconclusive: 23.1 µM [inhibitor, single point]
CCc1ccc(NS(=O)(=O)c2ccc3c(c2)oc(=O)n3C)cc1	inconclusive: 10.3 µM [inhibitor, partial curve, poor fit]
N#Cc1nc(N2CCCCC2)nc(N2CCOCC2)n1	inconclusive: 6.51 µM [inhibitor, partial curve]
COc1cccc(-c2csc(N3CCN(C(=O)C4CCCCC4)CC3)n2)c1	inconclusive: 23.1 µM [inhibitor, partial curve, poor fit]
COc1ccc(-c2n(Cc3ccccc3)c3ccccc3[n+]2Cc2ccccc2)cc1	inconclusive: 6.51 µM [inhibitor, single point]
CC(Sc1nnc(-c2ccccc2)c(-c2ccccc2)n1)C(=O)NCC1CCCO1 (stereo unspecified)	inconclusive: 20.6 µM [inhibitor, single point]
COc1ccc(C(=O)c2ccc(OC)c(OC)c2)cc1OC	inactive
CCC(=O)OCCn1c(=O)c2cc3c(=O)n(CCOC(=O)CC)c(=O)c3cc2c1=O	inconclusive: 10.3 µM [activator, partial curve, poor fit]
Fc1cccc(F)c1CSc1nc2ccccc2[nH]1	inconclusive: 7.31 µM [activator, partial curve]
CC[C@]1(C(=O)OC)[C@H]2C(=O)N(Cc3ccccc3)C(=O)[C@H]2[C@H]2CN(C)C(=NC)N21	inactive
c1ccc2[nH]c3cc4ncnc4cc3nc2c1	inconclusive: 18.4 µM [activator, single point]
Cc1cc(C(=O)OCC(=O)N2CC(=O)Nc3ccccc32)c(C)n1-c1ccccc1	inconclusive: 29.1 µM [inhibitor, single point]
COc1cc(-c2ccc3oc(-c4ccsc4)cc(=O)c3c2)cc(OC)c1OC	active: 16.4 µM
O=C(NCCCN1CCOCC1)c1ccccc1N1C(=O)[C@@H]2Cc3c([nH]c4ccccc34)C(c3cccc(Cl)c3)N2C1=O (stereo partly specified)	inconclusive: 4.11 µM [inhibitor, single point]
COc1ccc(-c2csc(NC(=O)CN3C(=O)NC4(CCCC4)C3=O)n2)cc1OC	inactive
COC(C(=O)Nc1ccnn1C1CCN(C(=O)c2ccc(C=O)cc2)CC1)c1ccccc1 (stereo unspecified)	inconclusive: 23.1 µM [activator, partial curve, poor fit]
COc1ccccc1CN(C)C(=O)c1cc(-c2cc(OC)c(OC)c(OC)c2)nc2ccccc12	active: 5.8 µM
CCOC(=O)c1c(-c2ccc(C)o2)csc1NC(=S)NC(=O)c1ccccc1Br	inconclusive: 32.6 µM [inhibitor, single point]

SMILES	Potency
COc1ccc(CSCCNC(=S)Nc2ccccc2)cc1Cl	inconclusive: 29.1 µM [inhibitor, single point]
Nc1nonc1C(=O)N/N=C/c1cccc([N+](=O)[O-])c1	inactive
Cc1cc(NS(=O)(=O)c2ccc(NC(=S)NC(=O)c3ccc(Br)cc3)cc2)no1	inactive
Cc1nnc(NC(=O)CSC2CCCCC2)s1	inactive
N#CCCN(CCC#N)S(=O)(=O)c1ccc(C(=O)Nc2nc(-c3ccccc3)c(C(=O)c3ccccc3)s2)cc1	inconclusive: 29.1 µM [inhibitor, single point]
CC(C)c1ccc(NC(=O)c2cccnc2)cc1	inconclusive: 3.26 µM [activator, partial curve]
COCCN=C1NN=C(c2ccc(C)c([N+](=O)[O-])c2)CS1	inconclusive: 18.3 µM [activator, partial curve]
Cc1ccccc1N(C(=O)c1snc(C(N)=O)c1N)C(C(=O)NCC1CCCO1)c1ccc(N(C)C)cc1 (stereo unspecified)	inactive
Cc1ccc(-n2c(C)cc(/C=C(\C#N)C(=O)NCC3CCCO3)c2C)cc1 (stereo unspecified)	inconclusive: 7.31 µM [activator, partial curve]
N=C1C(c2nc3ccccc3[nH]2)=C(O)CN1c1ccccc1	inconclusive: 3.26 µM [activator, single point]
Cc1ccc(OC(=S)Nc2ccccc2)c(C)c1	inactive
COc1ccc(-c2nc(CN3CCN(c4ccccc4OC)CC3)c(C)o2)cc1	inconclusive: 25.9 µM [inhibitor, single point]
COc1ccc(C(=O)O/N=C(/c2ccccc2)c2ccncc2)cc1	inconclusive: 2.91 µM [activator, full curve]
C[C@H](NC(=O)[C@@H]1Cc2ccccc2CN1C(=O)OC(C)(C)C)C(=O)NCc1ccco1	inconclusive: 23.1 µM [activator, partial curve, poor fit]
COc1ccc([C@H]2CC(=O)C=C(/C=C/c3ccccc3)C2)cc1	inconclusive: 11.6 µM [activator, partial curve, poor fit]
CCOc1ccc2nc(NCCCNS(=O)(=O)c3ccc(C)cc3)c(C#N)cc2c1	inconclusive: 20.6 µM [inhibitor, partial curve, poor fit]
CCOc1ccccc1CNCC1CCCO1 (stereo unspecified)	inconclusive: 0.282 µM [activator, partial curve, poor fit]
CC1CCCN(S(=O)(=O)c2ccc3c(c2)C(C)(C)C(=O)N3C)C1 (stereo unspecified)	inconclusive: 29.1 µM [activator, single point]
Cc1ccc2nc(NC(=O)C3CCCN(S(=O)(=O)c4cccc5nonc45)C3)sc2c1 (stereo unspecified)	active: 7.3 µM
O=[N+]([O-])c1ccc(N2CCN(S(=O)(=O)Cc3ccccc3)CC2)cc1N1CCOCC1	inconclusive: 29.1 µM [inhibitor, single point]

Grouped by structure: the entries above containing a furan ring, fused or not (three)
SMILES	Potency
Cc1ccccc1NC(=O)c1cc2ccccc2o1	inconclusive: 8.91 µM [activator, partial curve, poor fit]
CCOC(=O)c1c(-c2ccc(C)o2)csc1NC(=S)NC(=O)c1ccccc1Br	inconclusive: 32.6 µM [inhibitor, single point]
C[C@H](NC(=O)[C@@H]1Cc2ccccc2CN1C(=O)OC(C)(C)C)C(=O)NCc1ccco1	inconclusive: 23.1 µM [activator, partial curve, poor fit]
